This data set can be described thus: Animal model for obesity (45% high fat diet). It is filed as in vivo. As to conditions: HFD-fed WT mice.

Consider `C[C@@H]1c2c(c3ccc4ccccc4c3oc2=O)O[C@@H]1C` [ST32db, (1R,2R)-1,2-dimethyl-1H-benzo[h]furo[3,2-c]chromen-11(2H)-one], for which the food intake entry (1 or 10 mg/kg/day, FIG. 6B) is “without affecting their food intake”.

For the molecule `C[C@@H]1Oc2c(c(=O)oc3c2ccc2ccccc23)[C@H]1C` [ST32da, (1R,2S)-1,2-dimethyl-1H-benzo[h]furo[3,2-c]chromen-11(2H)-one], the food intake result (0.5 mg/kg/day or 1 mg/kg/day i.p., FIG. 5A right) is “without affecting their food intake”.

Source of the values: US11365200B2, “ATF3 induction compounds” (TAIPEI MEDICAL UNIVERSITY, priority 2017, dated 2022).
